The source of these data is PMC12062448.

Protein sequences, listed by entry. Tags and fused reporters are not part of them. Residues count along the entry.
UniProt Q65900, residues 1549-1731: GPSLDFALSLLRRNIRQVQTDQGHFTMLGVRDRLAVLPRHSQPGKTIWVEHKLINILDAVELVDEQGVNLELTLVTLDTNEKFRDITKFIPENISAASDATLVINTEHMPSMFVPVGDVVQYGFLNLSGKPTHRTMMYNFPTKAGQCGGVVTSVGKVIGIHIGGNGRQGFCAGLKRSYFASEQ
UniProt Q14764: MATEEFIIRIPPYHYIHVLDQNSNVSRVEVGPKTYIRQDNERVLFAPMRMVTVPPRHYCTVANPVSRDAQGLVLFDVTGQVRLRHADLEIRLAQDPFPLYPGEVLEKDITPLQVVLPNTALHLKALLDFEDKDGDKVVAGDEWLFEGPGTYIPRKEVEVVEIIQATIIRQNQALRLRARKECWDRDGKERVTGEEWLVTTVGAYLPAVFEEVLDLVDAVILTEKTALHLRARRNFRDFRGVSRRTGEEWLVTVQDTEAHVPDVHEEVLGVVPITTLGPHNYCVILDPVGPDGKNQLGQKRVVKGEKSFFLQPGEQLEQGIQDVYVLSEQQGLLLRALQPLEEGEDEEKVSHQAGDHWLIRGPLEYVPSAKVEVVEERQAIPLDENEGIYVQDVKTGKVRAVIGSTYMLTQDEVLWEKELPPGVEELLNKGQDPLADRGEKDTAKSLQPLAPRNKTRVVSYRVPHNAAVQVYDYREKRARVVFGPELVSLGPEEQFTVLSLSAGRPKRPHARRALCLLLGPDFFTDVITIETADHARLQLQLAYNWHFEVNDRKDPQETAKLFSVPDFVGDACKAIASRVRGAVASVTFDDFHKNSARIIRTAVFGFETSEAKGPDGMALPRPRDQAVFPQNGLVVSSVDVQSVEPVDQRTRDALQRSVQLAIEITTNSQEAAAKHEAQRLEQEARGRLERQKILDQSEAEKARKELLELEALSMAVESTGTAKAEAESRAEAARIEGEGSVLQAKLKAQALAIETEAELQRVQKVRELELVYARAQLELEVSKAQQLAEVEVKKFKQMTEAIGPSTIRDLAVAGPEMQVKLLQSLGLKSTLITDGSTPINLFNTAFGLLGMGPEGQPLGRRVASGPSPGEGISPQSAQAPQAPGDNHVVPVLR

No constants are given. Whether binding was seen depends on the method and setting. In cells and extracts the contact can be indirect. Here binding means that the protein was enriched with, or labelled near, the bait; the list need not be complete.

This experiment has as its target Enterovirus 71 3C protease, FLAG-tagged (3C-FLAG) (human enterovirus 71 (EV71)) (UniProt Q65900). Briefly: affinity purification with mass spectrometry; lysates of 10^7 U87 MG cells transfected with the 3C-FLAG plasmid, IP lysis buffer with 1 mM PMSF; anti-FLAG antibody and protein A/G agarose beads, 4 °C, 3 h; control: nonspecific IgG; SDS-PAGE gel slice, in-gel trypsin digestion, LC-MS/MS.

For the substance “major vault protein (MVP) (from UniProt Q14764 1-893)”, the binding result is reported as “binds”.
